The supplement of paper PMC10849652
This is one part of the list. Residues, ends and D or L forms follow the SMILES beside them. *: point of attachment. Cbz = O=C(OCc1ccccc1)*

The chains behind the UniProt entries cited, without tags or fusion partners. Where a name states a change or a piece, a line headed by the entry shows the natural chain unless it says otherwise.
UniProt Q14691: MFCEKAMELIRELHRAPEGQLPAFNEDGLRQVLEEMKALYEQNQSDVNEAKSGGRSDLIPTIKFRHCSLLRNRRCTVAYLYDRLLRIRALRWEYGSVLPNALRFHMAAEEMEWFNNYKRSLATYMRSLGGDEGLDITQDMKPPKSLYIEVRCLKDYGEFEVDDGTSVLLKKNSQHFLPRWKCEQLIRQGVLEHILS
UniProt Q96IJ6: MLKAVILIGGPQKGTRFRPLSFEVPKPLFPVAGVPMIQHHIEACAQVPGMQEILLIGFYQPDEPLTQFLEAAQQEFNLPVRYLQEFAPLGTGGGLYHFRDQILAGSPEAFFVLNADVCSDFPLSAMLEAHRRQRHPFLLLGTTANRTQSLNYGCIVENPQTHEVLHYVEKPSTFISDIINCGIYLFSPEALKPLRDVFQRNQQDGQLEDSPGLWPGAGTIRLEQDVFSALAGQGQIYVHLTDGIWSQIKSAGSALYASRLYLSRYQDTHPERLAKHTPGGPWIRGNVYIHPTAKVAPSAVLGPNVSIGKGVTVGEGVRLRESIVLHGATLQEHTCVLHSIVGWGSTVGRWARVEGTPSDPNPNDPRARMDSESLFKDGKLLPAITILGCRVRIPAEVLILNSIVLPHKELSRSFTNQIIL
UniProt P43304: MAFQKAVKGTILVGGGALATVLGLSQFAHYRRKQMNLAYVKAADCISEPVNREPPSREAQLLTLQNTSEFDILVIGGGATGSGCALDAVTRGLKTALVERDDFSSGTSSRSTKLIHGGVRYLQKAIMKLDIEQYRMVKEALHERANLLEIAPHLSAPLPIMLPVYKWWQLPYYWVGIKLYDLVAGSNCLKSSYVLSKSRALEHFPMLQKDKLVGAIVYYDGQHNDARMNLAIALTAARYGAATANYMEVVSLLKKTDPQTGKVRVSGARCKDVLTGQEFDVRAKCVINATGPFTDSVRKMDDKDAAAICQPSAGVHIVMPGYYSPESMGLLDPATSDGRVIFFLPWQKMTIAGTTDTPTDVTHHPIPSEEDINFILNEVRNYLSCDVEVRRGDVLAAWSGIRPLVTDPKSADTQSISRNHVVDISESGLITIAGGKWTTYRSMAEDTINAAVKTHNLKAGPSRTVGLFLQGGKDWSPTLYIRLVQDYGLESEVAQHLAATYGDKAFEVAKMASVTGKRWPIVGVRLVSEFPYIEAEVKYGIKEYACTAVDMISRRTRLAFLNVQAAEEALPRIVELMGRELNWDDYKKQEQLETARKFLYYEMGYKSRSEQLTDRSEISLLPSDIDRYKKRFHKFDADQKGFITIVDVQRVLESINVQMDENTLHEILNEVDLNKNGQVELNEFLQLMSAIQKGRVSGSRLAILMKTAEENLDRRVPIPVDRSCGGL
UniProt Q86SX6: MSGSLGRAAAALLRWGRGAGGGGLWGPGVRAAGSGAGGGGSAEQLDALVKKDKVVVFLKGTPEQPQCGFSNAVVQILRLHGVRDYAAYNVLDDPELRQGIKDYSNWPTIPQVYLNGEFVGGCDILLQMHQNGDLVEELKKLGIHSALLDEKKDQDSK
UniProt Q8TDQ7: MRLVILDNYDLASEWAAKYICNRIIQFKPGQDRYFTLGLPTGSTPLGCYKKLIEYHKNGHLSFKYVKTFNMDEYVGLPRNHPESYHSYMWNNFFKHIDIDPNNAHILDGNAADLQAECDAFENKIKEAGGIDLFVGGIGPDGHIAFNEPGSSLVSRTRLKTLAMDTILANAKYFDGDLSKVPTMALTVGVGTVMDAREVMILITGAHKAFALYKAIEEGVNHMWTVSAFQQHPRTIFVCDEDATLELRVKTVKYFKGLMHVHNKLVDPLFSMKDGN
UniProt P17174: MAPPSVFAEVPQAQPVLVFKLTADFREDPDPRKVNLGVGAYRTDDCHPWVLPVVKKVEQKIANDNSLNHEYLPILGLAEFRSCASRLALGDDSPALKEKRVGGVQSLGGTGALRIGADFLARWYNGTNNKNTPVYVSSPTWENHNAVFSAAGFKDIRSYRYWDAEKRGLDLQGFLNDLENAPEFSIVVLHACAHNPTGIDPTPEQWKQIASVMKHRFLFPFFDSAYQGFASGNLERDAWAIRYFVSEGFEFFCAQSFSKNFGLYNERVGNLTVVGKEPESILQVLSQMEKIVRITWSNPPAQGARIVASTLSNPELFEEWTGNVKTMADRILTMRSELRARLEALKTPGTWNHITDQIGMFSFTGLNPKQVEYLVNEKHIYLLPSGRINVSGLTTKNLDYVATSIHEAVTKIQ
UniProt Q04760: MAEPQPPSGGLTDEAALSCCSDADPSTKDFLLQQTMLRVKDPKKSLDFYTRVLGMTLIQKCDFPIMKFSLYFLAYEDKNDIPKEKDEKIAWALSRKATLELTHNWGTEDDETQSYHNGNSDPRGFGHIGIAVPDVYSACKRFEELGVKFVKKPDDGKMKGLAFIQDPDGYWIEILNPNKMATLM
UniProt Q6Y7W6: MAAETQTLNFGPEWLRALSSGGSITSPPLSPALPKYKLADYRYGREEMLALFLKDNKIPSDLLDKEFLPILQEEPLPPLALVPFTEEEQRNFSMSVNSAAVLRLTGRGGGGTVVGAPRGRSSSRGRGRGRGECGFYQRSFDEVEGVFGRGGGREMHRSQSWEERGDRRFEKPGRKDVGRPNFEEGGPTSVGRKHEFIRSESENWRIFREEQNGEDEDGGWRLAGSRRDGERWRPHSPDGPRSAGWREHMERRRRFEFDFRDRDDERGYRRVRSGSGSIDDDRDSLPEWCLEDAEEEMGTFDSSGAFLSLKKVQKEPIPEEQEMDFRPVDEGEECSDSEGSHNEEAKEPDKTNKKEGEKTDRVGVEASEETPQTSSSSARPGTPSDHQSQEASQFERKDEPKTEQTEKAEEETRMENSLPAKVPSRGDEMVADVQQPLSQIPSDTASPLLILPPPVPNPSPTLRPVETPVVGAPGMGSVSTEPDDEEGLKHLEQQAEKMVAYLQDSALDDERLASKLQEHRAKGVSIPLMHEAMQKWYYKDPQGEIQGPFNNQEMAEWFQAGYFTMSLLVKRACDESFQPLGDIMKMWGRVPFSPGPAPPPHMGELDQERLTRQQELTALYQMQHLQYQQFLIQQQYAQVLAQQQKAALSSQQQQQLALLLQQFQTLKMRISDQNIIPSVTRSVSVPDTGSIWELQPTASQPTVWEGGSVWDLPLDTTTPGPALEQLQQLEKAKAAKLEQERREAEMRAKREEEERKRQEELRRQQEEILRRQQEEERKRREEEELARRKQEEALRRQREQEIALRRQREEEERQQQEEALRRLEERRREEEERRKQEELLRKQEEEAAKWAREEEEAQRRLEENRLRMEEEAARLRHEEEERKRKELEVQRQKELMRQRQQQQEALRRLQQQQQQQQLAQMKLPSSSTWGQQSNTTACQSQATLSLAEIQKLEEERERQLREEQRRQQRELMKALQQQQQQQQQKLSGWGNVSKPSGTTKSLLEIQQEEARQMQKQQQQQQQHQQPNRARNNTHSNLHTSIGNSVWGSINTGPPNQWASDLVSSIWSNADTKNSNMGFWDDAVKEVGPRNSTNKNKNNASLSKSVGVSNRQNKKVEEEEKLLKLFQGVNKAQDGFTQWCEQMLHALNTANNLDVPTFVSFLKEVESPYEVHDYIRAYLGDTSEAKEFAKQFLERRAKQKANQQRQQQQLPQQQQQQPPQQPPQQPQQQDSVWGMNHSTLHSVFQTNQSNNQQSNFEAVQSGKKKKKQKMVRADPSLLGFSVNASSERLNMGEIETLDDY
UniProt Q8IW92: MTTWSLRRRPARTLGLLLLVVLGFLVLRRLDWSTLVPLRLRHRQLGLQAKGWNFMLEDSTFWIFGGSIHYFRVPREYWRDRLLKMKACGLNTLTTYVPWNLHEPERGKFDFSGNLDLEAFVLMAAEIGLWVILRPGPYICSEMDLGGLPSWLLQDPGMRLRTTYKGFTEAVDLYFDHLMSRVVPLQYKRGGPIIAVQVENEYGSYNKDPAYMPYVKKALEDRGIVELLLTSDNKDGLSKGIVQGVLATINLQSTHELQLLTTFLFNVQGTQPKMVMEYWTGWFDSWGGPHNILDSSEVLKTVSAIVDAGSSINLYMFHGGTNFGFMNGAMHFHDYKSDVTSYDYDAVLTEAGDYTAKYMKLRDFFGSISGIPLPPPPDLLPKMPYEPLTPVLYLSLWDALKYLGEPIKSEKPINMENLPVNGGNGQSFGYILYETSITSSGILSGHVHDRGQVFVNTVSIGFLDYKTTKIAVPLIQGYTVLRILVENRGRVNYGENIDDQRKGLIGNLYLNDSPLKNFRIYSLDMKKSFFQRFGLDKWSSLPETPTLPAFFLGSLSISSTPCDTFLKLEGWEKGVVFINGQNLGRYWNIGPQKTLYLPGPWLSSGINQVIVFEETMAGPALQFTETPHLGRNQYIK
UniProt Q9NQX3: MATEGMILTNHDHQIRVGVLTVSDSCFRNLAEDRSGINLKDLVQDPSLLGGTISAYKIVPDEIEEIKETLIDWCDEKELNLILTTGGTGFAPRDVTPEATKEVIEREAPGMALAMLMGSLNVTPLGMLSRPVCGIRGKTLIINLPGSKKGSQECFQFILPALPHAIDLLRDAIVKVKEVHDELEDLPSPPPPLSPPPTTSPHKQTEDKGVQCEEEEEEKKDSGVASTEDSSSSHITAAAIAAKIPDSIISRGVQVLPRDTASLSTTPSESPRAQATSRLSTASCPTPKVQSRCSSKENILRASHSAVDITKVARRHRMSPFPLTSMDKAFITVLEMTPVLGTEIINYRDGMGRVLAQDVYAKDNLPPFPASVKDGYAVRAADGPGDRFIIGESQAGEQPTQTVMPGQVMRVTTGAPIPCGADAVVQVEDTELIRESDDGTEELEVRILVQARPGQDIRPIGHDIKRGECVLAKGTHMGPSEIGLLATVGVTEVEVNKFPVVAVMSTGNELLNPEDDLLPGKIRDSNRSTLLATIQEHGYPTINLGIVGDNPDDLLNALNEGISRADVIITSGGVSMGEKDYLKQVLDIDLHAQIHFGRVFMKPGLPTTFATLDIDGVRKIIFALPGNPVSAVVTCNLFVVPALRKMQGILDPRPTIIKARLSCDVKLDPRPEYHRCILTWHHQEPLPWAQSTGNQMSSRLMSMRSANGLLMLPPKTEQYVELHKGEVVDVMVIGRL
UniProt Q8N954: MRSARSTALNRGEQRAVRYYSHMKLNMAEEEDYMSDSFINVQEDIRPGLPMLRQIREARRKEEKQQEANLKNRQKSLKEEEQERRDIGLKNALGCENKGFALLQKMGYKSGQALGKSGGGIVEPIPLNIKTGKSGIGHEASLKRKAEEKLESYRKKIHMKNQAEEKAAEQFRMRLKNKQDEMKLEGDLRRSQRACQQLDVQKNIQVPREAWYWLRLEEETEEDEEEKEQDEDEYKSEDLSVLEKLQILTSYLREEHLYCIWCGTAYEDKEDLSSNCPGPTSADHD
UniProt Q9BRX5: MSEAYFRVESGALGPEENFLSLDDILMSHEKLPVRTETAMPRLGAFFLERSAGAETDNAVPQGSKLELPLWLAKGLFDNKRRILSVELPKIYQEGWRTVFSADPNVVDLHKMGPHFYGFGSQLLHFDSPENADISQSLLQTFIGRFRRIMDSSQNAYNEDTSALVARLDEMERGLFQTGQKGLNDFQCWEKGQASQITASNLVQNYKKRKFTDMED
UniProt O60547: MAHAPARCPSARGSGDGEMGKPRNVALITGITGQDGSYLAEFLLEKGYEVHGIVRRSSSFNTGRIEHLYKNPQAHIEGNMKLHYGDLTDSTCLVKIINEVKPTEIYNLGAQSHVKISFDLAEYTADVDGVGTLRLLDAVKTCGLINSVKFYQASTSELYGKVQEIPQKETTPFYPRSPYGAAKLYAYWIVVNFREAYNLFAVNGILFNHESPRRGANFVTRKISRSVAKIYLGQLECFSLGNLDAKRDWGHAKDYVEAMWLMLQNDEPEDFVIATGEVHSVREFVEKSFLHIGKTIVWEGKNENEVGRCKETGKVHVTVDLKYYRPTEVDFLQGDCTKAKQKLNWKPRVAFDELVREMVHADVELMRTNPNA
UniProt Q86WP2: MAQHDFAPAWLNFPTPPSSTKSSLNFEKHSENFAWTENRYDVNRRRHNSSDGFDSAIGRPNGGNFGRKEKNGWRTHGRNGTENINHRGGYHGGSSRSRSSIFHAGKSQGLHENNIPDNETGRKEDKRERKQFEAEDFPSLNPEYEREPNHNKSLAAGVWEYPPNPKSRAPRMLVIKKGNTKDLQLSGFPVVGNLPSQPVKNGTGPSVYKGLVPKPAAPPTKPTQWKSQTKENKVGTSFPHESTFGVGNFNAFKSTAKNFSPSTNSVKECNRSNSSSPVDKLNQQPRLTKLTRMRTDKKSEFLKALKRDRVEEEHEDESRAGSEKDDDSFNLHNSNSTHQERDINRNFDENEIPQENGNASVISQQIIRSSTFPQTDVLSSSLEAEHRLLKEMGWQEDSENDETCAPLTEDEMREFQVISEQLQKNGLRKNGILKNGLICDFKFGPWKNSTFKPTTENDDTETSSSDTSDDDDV

Key:
Assay in all cases: log2 fold change, soluble protein after heating vs DMSO (PISA); higher = thermal stabilisation; K562 cells, 10 uM, 30 min; active = over 0.2 and 3.5 SD of the protein, either way, in both replicates (recomputed)
[1] = compound: C1COCCN1CCN2C3=CC=CC=C3N=C2NC(=O)C4=CC(=CC=C4)[N+](=O)[O-] [IRAK-1-4 Inhibitor I]
In short: (§1)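 K562 cells at 2×10^6 cells/mL were treated for 30 min with 10 μM compound, and aliquots were heated for 3 min over 48°C-58°C before pooling. Extraction used PBS with 0.5% NP-40 at 4°C, and soluble protein was the supernatant after 21,000xg for 90 min, measured by TMTpro 16plex LC-MS/MS with channel sums equalised. Thermal stability values, relative to control samples and from duplicates, are log2 fold changes.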

[2] = compound: C=CC(=O)N1CCC[C@@H](n2nc(-c3ccc(Oc4ccccc4)cc3)c3c(N)ncnc32)C1 [ibrutinib]
In short: as §1

[3] = compound: CC(=O)c1cnc2ccc(-c3cc(Cl)c(O)c(Cl)c3)nc2c1N[C@H]1CC[C@H](CN(C)C)CC1
In short: as §1

[4] = compound: CC(C)(C)Cn1c(N)nc2ccc(-c3[nH]c(C(C)(C)C)nc3-c3ccc(F)cc3)nc21 [ralimetinib]
In short: as §1

[5] = compound: CC(C)(O)CC(=O)NCCn1ccc2ncnc(Nc3ccc(Oc4cccc(C(F)(F)F)c4)c(Cl)c3)c21
In short: as §1

[6] = compound: CC(C)C1=C2N=C(C=C(N2N=C1)NCC3=CC=CC=C3)NCCCCCCN
In short: as §1

[7] = compound: CC(C)C[C@@H](C=O)NC(=O)[C@H](CC(C)C)NC(=O)[C@H](CC(C)C)NC(=O)OCc1ccccc1
In short: as §1

[8] = compound: CC(C)N(C[C@H]1O[C@@H](n2cnc3c(N)ncnc32)[C@H](O)[C@@H]1O)[C@H]1C[C@@H](CCc2nc3cc(C(C)(C)C)ccc3[nH]2)C1 [pinometostat]
In short: as §1

[9] = compound: CC1=C(C(CC(=O)N1)C2=CC=C(C=C2)C(F)(F)F)C(=O)NC3=C(C=C4C(=C3)C=NN4)F
In short: as §1

[10] = compound: CC1=C(C2=C(C=C1)C(=O)C3=CC=CC=C3N2CCCN)C
In short: as §1

[11] = compound: CC1=C(C=C(C=C1)NC(=O)C2=CC(=CC=C2)C(C)(C)C#N)NC3=CC4=C(C=C3)N=CN(C4=O)C
In short: as §1

[12] = compound: CC1=C(C=C(C=C1)NC(=O)C2=CC(=CC=C2)N(C)C)NC(=O)C3=CC=C(C=C3)O
In short: as §1

[13] = compound: CC1=CC=C(C=C1)SC2=C3C=C(SC3=CN=C2)C(=O)N
In short: as §1

[14] = compound: CC1=NC(=CC=C1)C2=C(N=C(N2)C(C)(C)C)C3=CC4=NC=CN=C4C=C3
In short: as §1

[15] = compound: CCCCN(Cc1ccc(C(=O)NO)cc1)C(=O)Nc1ccccc1 [Nexturastat A]
In short: as §1

[16] = compound: CCCS(=O)(=O)Nc1ccc(F)c(C(=O)c2c[nH]c3ncc(-c4ccc(Cl)cc4)cc23)c1F [vemurafenib]
In short: as §1

[17] = compound: CCCS(=O)(=O)Nc1ccc(F)c(C(=O)c2c[nH]c3ncc(Cl)cc23)c1F
In short: as §1

[18] = compound: CCCc1cc(C)[nH]c(=O)c1CNC(=O)c1cc(-c2ccnc(N3CCN(C)CC3)c2)cc2c1cnn2C(C)C
In short: as §1

[19] = compound: CCN(CC)Cc1ccc2cc(COC(=O)Nc3ccc(C(=O)NO)cc3)ccc2c1 [givinostat]
In short: as §1

[20] = compound: CCN(CCCOc1ccc2c(Nc3cc(CC(=O)Nc4cccc(F)c4)[nH]n3)ncnc2c1)CCOP(=O)(O)O [barasertib]
In short: as §1

Measured: log2 fold change

GINS1 (UniProt Q14691)
inactive: [1] 0.058 | [2] -0.016 | [3] 0.003 | [4] 0.031 | [5] -0.035 | [6] -0.017 | [7] -0.016 | [8] -0.054 | [9] -0.011 | [10] 0.009 | [11] 0.027 | [12] -0.018 | [13] 0.063 | [14] 0.052 | [15] 0.023 | [16] 0.059 | [17] 0.113 | [18] 0.005 | [19] 0.001 | [20] 0.027

GMPPA (UniProt Q96IJ6)
inactive: [1] 0.054 | [2] 0.037 | [3] 0.044 | [4] -0.028 | [5] -0.028 | [6] 0.034 | [7] -0.021 | [8] -0.048 | [9] 0.02 | [10] 0.12 | [11] -0.013 | [12] -0.014 | [13] 0.09 | [14] 0.025 | [15] -0.064 | [16] 0.028 | [17] 0.064 | [18] -0.025 | [19] -0.011 | [20] 0.022

GPD2 (UniProt P43304)
inactive: [1] 0.026 | [2] 0.021 | [3] 0.007 | [4] 0.002 | [5] 0 | [6] 0.038 | [7] -0.059 | [8] -0.018 | [9] 0.013 | [10] -0.016 | [11] -0.022 | [12] -0.007 | [13] 0.028 | [14] -0.017 | [15] -0.049 | [16] -0.025 | [17] -0.018 | [18] -0.023 | [19] -0.024 | [20] -0.016

GLRX5 (UniProt Q86SX6)
inactive: [1] 0.105 | [2] 0.051 | [3] 0.131 | [4] -0.068 | [5] -0.101 | [6] 0.03 | [7] -0.005 | [8] -0.1 | [9] 0.11 | [10] 0.143 | [11] 0.027 | [12] -0.176 | [13] 0.096 | [14] -0.178 | [15] -0.007 | [16] -0.053 | [17] 0.028 | [18] -0.056 | [19] -0.039 | [20] 0.036

Two successive records already listed, quoted:
GPD2 (UniProt P43304)
inactive: [1] 0.026 | [2] 0.021 | [3] 0.007 | [4] 0.002 | [5] 0 | [6] 0.038 | [7] -0.059 | [8] -0.018 | [9] 0.013 | [10] -0.016 | [11] -0.022 | [12] -0.007 | [13] 0.028 | [14] -0.017 | [15] -0.049 | [16] -0.025 | [17] -0.018 | [18] -0.023 | [19] -0.024 | [20] -0.016

GLRX5 (UniProt Q86SX6)
inactive: [1] 0.105 | [2] 0.051 | [3] 0.131 | [4] -0.068 | [5] -0.101 | [6] 0.03 | [7] -0.005 | [8] -0.1 | [9] 0.11 | [10] 0.143 | [11] 0.027 | [12] -0.176 | [13] 0.096 | [14] -0.178 | [15] -0.007 | [16] -0.053 | [17] 0.028 | [18] -0.056 | [19] -0.039 | [20] 0.036

(cont.)

GNPDA2 (UniProt Q8TDQ7)
inactive: [1] 0.015 | [2] 0.001 | [3] 0.013 | [4] -0.103 | [5] 0.032 | [6] 0.089 | [7] -0.013 | [8] -0.014 | [9] -0.035 | [10] 0.018 | [11] -0.034 | [12] -0.074 | [13] 0.002 | [14] 0.051 | [15] -0.095 | [16] 0.049 | [17] 0.015 | [18] 0.003 | [19] -0.027 | [20] 0.013

GOT1 (UniProt P17174)
inactive: [1] 0.034 | [2] -0.001 | [3] 0.028 | [4] -0.044 | [5] 0.01 | [6] 0.05 | [7] -0.02 | [8] -0.069 | [9] -0.012 | [10] 0.02 | [11] -0.024 | [12] 0.018 | [13] 0.008 | [14] 0.009 | [15] -0.032 | [16] 0.003 | [17] -0.025 | [18] 0.002 | [19] 0.017 | [20] 0.007

GLO1 (UniProt Q04760)
inactive: [1] 0.03 | [2] 0.012 | [3] -0.004 | [4] -0.028 | [5] -0.022 | [6] -0.001 | [7] -0.063 | [8] -0.06 | [9] 0.125 | [10] 0.001 | [11] 0.012 | [12] 0.023 | [13] 0.011 | [14] 0.024 | [15] -0.032 | [16] 0.009 | [17] -0.017 | [18] -0.02 | [19] -0.019 | [20] 0.013

GIGYF2 (UniProt Q6Y7W6)
inactive: [1] -0.01 | [2] -0.039 | [4] -0.041 | [5] -0.124 | [6] -0.115 | [7] 0.01 | [8] 0.082 | [10] 0.021 | [11] -0.075 | [12] 0.058 | [13] 0.01 | [14] 0.044 | [15] 0.05 | [16] 0.043 | [17] 0.048 | [18] 0.049 | [19] 0.092 | [20] 0.093
active: [3] -0.316

GLB1L2 (UniProt Q8IW92)
inactive: [1] 0.006 | [2] -0.062 | [3] 0.01 | [4] -0.011 | [5] 0.051 | [6] 0.109 | [7] 0.045 | [8] -0.023 | [9] -0.033 | [10] 0.059 | [11] 0.011 | [12] -0.023 | [13] -0.015 | [14] -0.071 | [15] -0.007 | [16] -0.017 | [17] 0.01 | [18] 0.019 | [19] -0.012 | [20] 0.051

GPHN isoform 2 (UniProt Q9NQX3)
inactive: [1] 0.014 | [2] -0.001 | [3] 0.007 | [4] -0.071 | [5] -0.011 | [6] 0.071 | [7] -0.001 | [8] -0.021 | [9] 0.007 | [10] 0.03 | [11] -0.023 | [12] 0.004 | [13] 0.008 | [14] -0.002 | [15] -0.044 | [16] 0.006 | [17] -0.01 | [18] -0.003 | [19] -0.003 | [20] 0.005

GPATCH11 (UniProt Q8N954)
inactive: [1] -0.018 | [2] -0.053 | [3] -0.04 | [4] -0.026 | [5] 0.015 | [6] 0.197 | [7] 0.031 | [8] -0.047 | [9] 0.038 | [10] -0.019 | [11] -0.017 | [12] -0.015 | [13] 0.013 | [14] 0.1 | [15] 0.042 | [16] -0.022 | [17] -0.006 | [18] -0.031 | [19] -0.111 | [20] 0.035

GORASP2 isoform 3 (UniProt Q9H8Y8)
inactive: [1] -0.101 | [2] -0.006 | [3] 0.067 | [4] 0.014 | [5] -0.165 | [6] 0.028 | [7] 0.054 | [8] 0.08 | [9] -0.012 | [10] 0.024 | [11] 0 | [12] -0.095 | [13] 0.074 | [14] -0.044 | [15] -0.019 | [16] 0.1 | [17] 0.164 | [18] 0.027 | [19] 0.054 | [20] 0.042

GINS3 (UniProt Q9BRX5)
inactive: [1] 0.009 | [2] -0.025 | [3] -0.01 | [4] -0.015 | [5] -0.032 | [6] -0.057 | [7] -0.012 | [8] -0.004 | [9] -0.035 | [10] 0.031 | [11] 0.009 | [12] -0.044 | [13] 0.018 | [14] 0.012 | [15] -0.097 | [16] -0.007 | [17] 0.004 | [18] -0.006 | [19] 0.012 | [20] 0.058

GMDS (UniProt O60547)
inactive: [1] 0.033 | [2] 0.014 | [3] -0.005 | [4] -0.054 | [5] -0.021 | [6] 0.056 | [7] -0.009 | [8] -0.044 | [9] 0.009 | [10] -0.002 | [11] -0.034 | [12] -0.011 | [13] 0.023 | [14] 0.017 | [15] -0.085 | [16] -0.046 | [17] -0.008 | [18] -0.046 | [19] -0.033 | [20] -0.036

GLCCI1 (UniProt Q86VQ1)
inactive: [1] 0.062 | [2] 0.013 | [3] -0.131 | [4] 0.001 | [5] -0.012 | [6] 0.075 | [7] 0.017 | [8] -0.03 | [10] -0.013 | [11] 0.037 | [12] 0.104 | [13] -0.029 | [14] 0.028 | [15] 0 | [16] -0.007 | [17] -0.035 | [18] 0.033 | [19] 0.045 | [20] -0.075

GPBP1 isoform 2 (UniProt Q86WP2)
inactive: [1] -0.092 | [2] 0.053 | [3] 0.071 | [4] 0.023 | [5] 0.09 | [6] -0.06 | [7] 0.102 | [8] 0.01 | [9] 0.012 | [10] -0.007 | [11] 0.017 | [12] -0.04 | [13] -0.081 | [14] 0.029 | [15] 0.095 | [16] -0.182 | [17] -0.046 | [18] -0.053 | [19] -0.059 | [20] -0.03
